Experimental findings from PMC7862700 are described below.

The entries are a selection whose mix differs from that of the whole data set. At the low end of the ranking the order means little.

Holding throughout (assay): DAPPL (digital affinity profiling via proximity ligation, sequencing)
Settings in all cases: 10 mM Tris-HCl pH 7.5, 50 mM NaCl, 1 mM DTT, 4% glycerol, room temperature, 30 min; GST-TFs on glutathione beads, 16-mer random dsDNA library, 0.1% …; high values mean tight binding; double strand, one strand shown; scale: fold enrichment (6-mer frequency, TF over GST control)

The target in one test is T1, ELK1 (UniProt P19419).
T1 sequence: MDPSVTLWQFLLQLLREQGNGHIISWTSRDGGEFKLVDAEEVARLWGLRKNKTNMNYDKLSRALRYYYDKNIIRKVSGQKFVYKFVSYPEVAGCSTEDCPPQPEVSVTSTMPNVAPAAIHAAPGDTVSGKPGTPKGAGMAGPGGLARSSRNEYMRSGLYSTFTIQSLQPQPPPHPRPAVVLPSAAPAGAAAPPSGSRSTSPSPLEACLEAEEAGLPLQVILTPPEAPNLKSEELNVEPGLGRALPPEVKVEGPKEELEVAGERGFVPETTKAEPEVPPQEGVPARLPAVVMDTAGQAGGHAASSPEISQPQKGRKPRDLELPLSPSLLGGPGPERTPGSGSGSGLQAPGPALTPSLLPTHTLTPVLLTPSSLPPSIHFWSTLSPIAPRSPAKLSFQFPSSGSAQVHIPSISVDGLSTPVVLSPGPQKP

The target in a further test is T2, ELK3 (UniProt P41970).
T2 sequence: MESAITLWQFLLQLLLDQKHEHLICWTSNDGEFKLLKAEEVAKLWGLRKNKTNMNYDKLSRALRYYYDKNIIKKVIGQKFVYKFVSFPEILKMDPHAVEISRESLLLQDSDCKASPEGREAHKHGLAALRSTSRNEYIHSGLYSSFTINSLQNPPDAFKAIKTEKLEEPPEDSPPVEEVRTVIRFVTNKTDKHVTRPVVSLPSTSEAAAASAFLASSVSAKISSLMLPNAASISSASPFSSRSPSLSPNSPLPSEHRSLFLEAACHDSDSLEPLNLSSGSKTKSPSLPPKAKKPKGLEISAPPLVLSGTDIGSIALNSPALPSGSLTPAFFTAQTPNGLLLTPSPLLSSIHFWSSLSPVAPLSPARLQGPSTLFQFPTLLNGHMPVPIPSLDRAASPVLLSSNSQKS

For the next test, the target named is T3, SPIC (UniProt Q8N5J4).
T3 sequence: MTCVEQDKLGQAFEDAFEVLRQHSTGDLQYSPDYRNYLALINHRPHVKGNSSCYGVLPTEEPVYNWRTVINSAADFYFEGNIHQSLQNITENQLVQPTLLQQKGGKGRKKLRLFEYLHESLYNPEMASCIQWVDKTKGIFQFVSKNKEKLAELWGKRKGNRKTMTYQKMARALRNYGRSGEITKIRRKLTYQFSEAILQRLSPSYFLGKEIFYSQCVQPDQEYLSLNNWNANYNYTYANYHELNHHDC

For the next test, the target named is T4, ETS2 (UniProt P15036).
T4 sequence: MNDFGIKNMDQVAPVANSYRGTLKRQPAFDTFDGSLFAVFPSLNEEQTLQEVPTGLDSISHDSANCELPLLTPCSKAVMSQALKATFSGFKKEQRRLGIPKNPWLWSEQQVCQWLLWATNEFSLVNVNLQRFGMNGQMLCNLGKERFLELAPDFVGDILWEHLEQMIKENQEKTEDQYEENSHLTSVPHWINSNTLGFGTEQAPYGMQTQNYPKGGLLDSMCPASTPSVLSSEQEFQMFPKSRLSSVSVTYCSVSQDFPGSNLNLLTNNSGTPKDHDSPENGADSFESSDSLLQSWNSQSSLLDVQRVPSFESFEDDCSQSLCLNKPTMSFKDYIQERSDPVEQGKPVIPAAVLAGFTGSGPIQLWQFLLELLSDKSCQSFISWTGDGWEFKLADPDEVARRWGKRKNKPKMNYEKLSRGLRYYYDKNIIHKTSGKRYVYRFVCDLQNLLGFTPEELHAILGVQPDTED

The target of a further test is T5, ETV3 (UniProt P41162-2).
T5 sequence: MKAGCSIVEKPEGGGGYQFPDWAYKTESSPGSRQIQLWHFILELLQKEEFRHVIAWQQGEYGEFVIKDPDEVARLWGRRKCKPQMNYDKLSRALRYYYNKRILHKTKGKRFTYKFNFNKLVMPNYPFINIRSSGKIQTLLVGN

GAATAG: the binding signal with ELK1 was 0.979; with ELK3 it was 0.847; with SPIC, 0.898; with ETS2 it was 0.854; with ETV3 it was 0.966.
The like results for TTGGAT were, in that order, 0.953, 0.915, 0.964, 0.97 and 0.897.
The corresponding values for GCCACC are 0.942, 0.965, 0.941, 0.959 and 0.892.
The like results for TTAGAG were, in that order, 0.894, 0.877, 0.886, 0.85 and 0.91.
For ACCCGT, the binding signal with ELK1 was 0.862; in the test with ELK3, 0.874; with SPIC it was 0.967; in the test with ETS2 it was 0.899; with ETV3, 0.947.
The corresponding values for AGAAGA are 0.898, 0.86, 0.98, 0.913 and 0.905.
The like results for GCGAAC were, in that order, 0.942, 0.861, 0.984, 0.931 and 0.976.
The corresponding values for GTTCGT are 0.963, 0.977, 1.12, 0.957 and 0.905.
As to TAGAGA, the binding signal in the test with ELK1 was 0.814; with ELK3, 0.837; with SPIC, 0.854; with ETS2, 0.789; in the test with ETV3 it was 0.814.
Consider AGTTGC, for which the binding signal with ELK1 was 0.994; in the test with ELK3, 1.03; in the test with SPIC, 0.894; with ETS2 it was 0.957; in the test with ETV3, 0.986.
The like results for GCAGGT were, in that order, 0.916, 0.928, 0.771, 0.893 and 0.958.
For GCAAAG, the binding signal with ELK1 stood at 0.919; with ELK3, 0.964; with SPIC it was 0.722; with ETS2, 0.878; with ETV3, 0.938.
The like results for GGTTAA were, in that order, 0.897, 0.91, 0.897, 0.906 and 0.911.
The corresponding values for GCGTTA are 0.928, 1.09, 0.813, 0.93 and 0.905.
The like results for GCCTGA were, in that order, 1.13, 0.9, 0.867, 1.02 and 0.96.
Regarding GCAGCA, the binding signal with ELK1 was determined as 0.992; with ELK3, 0.976; with SPIC it was 0.927; with ETS2, 0.946; in the test with ETV3 it was 0.925.
The corresponding values for GTACCA are 1.04, 0.907, 0.943, 0.994 and 0.93.
The like results for GCGGCA were, in that order, 0.883, 0.937, 0.797, 0.868 and 0.877.
The corresponding values for AGCCCA are 0.959, 0.957, 0.918, 0.945 and 0.898.
Regarding TACGAG, the binding signal with ELK1 came to 0.972; with ELK3 it was 0.92; with SPIC, 0.831; in the test with ETS2, 0.957; with ETV3, 0.874.
The corresponding values for ATAGGT are 1.01, 0.985, 1.01, 0.987 and 1.06.
Consider GGGATT, for which the binding signal worked out at 0.877 with ELK1; 0.989 with ELK3; 0.829 in the test with SPIC; 0.91 with ETS2; 0.774 with ETV3.
As for CATAAA, the binding signal with ELK1 is 1; with ELK3, 0.994; in the test with SPIC, 0.994; with ETS2 it was 0.98; in the test with ETV3, 0.982.
Regarding AGAATC, the binding signal with ELK1 amounted to 0.879; with ELK3, 0.97; with SPIC, 0.85; in the test with ETS2 it was 0.957; with ETV3, 0.9.
The like results for CGAGAA were, in that order, 0.924, 0.977, 0.909, 0.902 and 0.787.
The corresponding values for GTTGAA are 0.86, 0.89, 0.881, 0.885 and 0.874.
As for CAAGCC, the binding signal in the test with ELK1 came out at 0.922; with ELK3, 1.06; in the test with SPIC, 0.686; with ETS2, 0.905.
Regarding TGACGG, the binding signal in the test with ELK1 amounted to 0.959; in the test with ELK3, 0.953; in the test with SPIC it was 0.977; with ETS2, 0.907; with ETV3, 0.933.
Consider GTGCGC, for which the binding signal with ELK1 was found to be 0.955; with ELK3, 0.986; with SPIC, 0.923; in the test with ETS2, 0.91.
For CGCCGG, the binding signal with ELK1 was 1.21; with ELK3 it was 1.08; with SPIC, 0.908; in the test with ETS2, 0.936.
The like results for GGTATC were, in that order, 1.07, 0.971, 0.934 and 1.01.
GTTGAT: the binding signal in the test with ELK1 was found to be 1.12; with ELK3, 0.982; in the test with SPIC, 1.17; with ETS2, 0.897.
The corresponding values for GTAATT are 1.1, 1.29, 1.21 and 1.28.
